From patent US20180320217A1, “METHODS FOR SAMPLING AND MEASURING ORAL LAVAGE PROTEINS” (The Procter & Gamble Company, priority 2017, published 2018)

B1: ADSV_HUMAN (protein, UniProt Q9Y6U3 1-715, looked up)
Scinderin: MARELYHEEFARAGKQAGLQVWRIEKLELVPVPQSAHGDFYVGDAYLVLHTAKTSRGFTYHLHFWLGKECSQDESTAAAIFTVQMDDYLGGKPVQNRELQGYESNDFVSYFKGGLKYKAGGVASGLNHVLTNDLTAKRLLHVKGRRVVRATEVPLSWDSFNKGDCFIIDLGTEIYQWCGSSCNKYERLKANQVATGIRYNERKGRSELIVVEEGSEPSELIKVLGEKPELPDGGDDDDIIADISNRKMAKLYMVSDASGSMRVTVVAEENPFSMAMLLSEECFILDHGAAKQIFVWKGKDANPQERKAAMKTAEEFLQQMNYSKNTQIQVLPEGGETPIFKQFFKDWRDKDQSDGFGKVYVTEKVAQIKQIPFDASKLHSSPQMAAQHNMVDDGSGKVEIWRVENNGRIQVDQNSYGEFYGGDCYIILYTYPRGQIIYTWQGANATRDELTTSAFLTVQLDRSLGGQAVQIRVSQGKEPVHLLSLFKDKPLIIYKNGTSKKGGQAPAPPTRLFQVRRNLASITRIVEVDVDANSLNSNDVFVLKLPQNSGYIWVGKGASQEEEKGAEYVASVLKCKTLRIQEGEEPEEFWNSLGGKKDYQTSPLLETQAEDHPPRLYGCSNKTGRFVIEEIPGEFTQDDLAEDDVMLLDAWEQIFIWIGKDANEVEKKESLKSAKMYLETDPSGRDKRTPIVIIKQGHEPPTFTGWFLGWDSSKW
B2: A2ML1_HUMAN (protein, UniProt A8K2U0 18-1454, looked up)
Alpha-2-macroglobulin-like …: EELPNYLVTLPARLNFPSVQKVCLDLSPGYSDVKFTVTLETKDKTQKLLEYSGLKKRHLHCISFLVPPPAGGTEEVATIRVSGVGNNISFEEKKKVLIQRQGNGTFVQTDKPLYTPGQQVYFRIVTMDSNFVPVNDKYSMVELQDPNSNRIAQWLEVVPEQGIVDLSFQLAPEAMLGTYTVAVAEGKTFGTFSVEEYVLPKFKVEVVEPKELSTVQESFLVKICCRYTYGKPMLGAVQVSVCQKANTYWYREVEREQLPDKCRNLSGQTDKTGCFSAPVDMATFDLIGYAYSHQINIVATVVEEGTGVEANATQNIYISPQMGSMTFEDTSNFYHPNFPFSGKIRVRGHDDSFLKNHLVFLVIYGTNGTFNQTLVTDNNGLAPFTLETSGWNGTDVSLEGKFQMEDLVYNPEQVPRYYQNAYLHLRPFYSTTRSFLGIHRLNGPLKCGQPQEVLVDYYIDPADASPDQEISFSYYLIGKGSLVMEGQKHLNSKKKGLKASFSLSLTFTSRLAPDPSLVIYAIFPSGGVVADKIQFSVEMCFDNQVSLGFSPSQQLPGAEVELQLQAAPGSLCALRAVDESVLLLRPDRELSNRSVYGMFPFWYGHYPYQVAEYDQCPVSGPWDFPQPLIDPMPQGHSSQRSIIWRPSFSEGTDLFSFFRDVGLKILSNAKIKKPVDCSHRSPEYSTAMGAGGGHPEAFESSTPLHQAEDSQVRQYFPETWLWDLFPIGNSGKEAVHVTVPDAITEWKAMSFCTSQSRGFGLSPTVGLTAFKPFFVDLTLPYSVVRGESFRLTATIFNYLKDCIRVQTDLAKSHEYQLESWADSQTSSCLCADDAKTHHWNITAVKLGHINFTISTKILDSNEPCGGQKGFVPQKGRSDTLIKPVLVKPEGVLVEKTHSSLLCPKGKVASESVSLELPVDIVPDSTKAYVTVLGDIMGTALQNLDGLVQMPSGCGEQNMVLFAPIIYVLQYLEKAGLLTEEIRSRAVGFLEIGYQKELMYKHSNGSYSAFGERDGNGNTWLTAFVTKCFGQAQKFIFIDPKNIQDALKWMAGNQLPSGCYANVGNLLHTAMKGGVDDEVSLTAYVTAALLEMGKDVDDPMVSQGLRCLKNSATSTTNLYTQALLAYIFSLAGEMDIRNILLKQLDQQAIISGESIYWSQKPTPSSNASPWSEPAAVDVELTAYALLAQLTKPSLTQKEIAKATSIVAWLAKQHNAYGGFSSTQDTVVALQALAKYATTAYMPSEEINLVVKSTENFQRTFNIQSVNRLVFQQDTLPNVPGMYTLEASGQGCVYVQTVLRYNILPPTNMKTFSLSVEIGKARCEQPTSPRSLTLTIHTSYVGSRSSSNMAIVEVKMLSGFSPMEGTNQLLLQQPLVKKVEFGTDTLNIYLDELIKNTQTYTFTISQSVLVTNLKPATIKVYDYYLPDEQATIQYSDPCE
B3: AATC_HUMAN (protein, UniProt P17174 2-413, looked up)
Aspartate aminotransferase, …: APPSVFAEVPQAQPVLVFKLTADFREDPDPRKVNLGVGAYRTDDCHPWVLPVVKKVEQKIANDNSLNHEYLPILGLAEFRSCASRLALGDDSPALKEKRVGGVQSLGGTGALRIGADFLARWYNGTNNKNTPVYVSSPTWENHNAVFSAAGFKDIRSYRYWDAEKRGLDLQGFLNDLENAPEFSIVVLHACAHNPTGIDPTPEQWKQIASVMKHRFLFPFFDSAYQGFASGNLERDAWAIRYFVSEGFEFFCAQSFSKNFGLYNERVGNLTVVGKEPESILQVLSQMEKIVRITWSNPPAQGARIVASTLSNPELFEEWTGNVKTMADRILTMRSELRARLEALKTPGTWNHITDQIGMFSFTGLNPKQVEYLVNEKHIYLLPSGRINVSGLTTKNLDYVATSIHEAVTKIQ
B4: FETUA_HUMAN (protein, UniProt P02765 19-300; P02765 341-367, looked up)
Alpha-2-HS-glycoprotein chain … 1: APHGPGLIYRQPNCDDPETEEAALVAIDYINQNLPWGYKHTLNQIDEVKVWPQQPSGELFEIEIDTLETTCHVLDPTPVARCSVRQLKEHAVEGDCDFQLLKLDGKFSVVYAKCDSSPDSAEDVRKVCQDCPLLAPLNDTRVVHAAKAALAAFNAQNNGSNFQLEEISRAQLVPLPPSTYVEFTVSGTDCVAKEATEAAKCNLLAEKQYGFCKATLSEKLGGAEVAVTCMVFQTQPVSSQPQPEGANEAVPTPVVDPDAPPSPPLGAPGLPPAGSPPDSHVL
Alpha-2-HS-glycoprotein chain … 2: TVVQPSVGAAAGPVVPPCPGRIRHFKV
B5: ACTN1_HUMAN (protein, UniProt P12814 1-892, looked up)
Alpha-actinin-1: MDHYDSQQTNDYMQPEEDWDRDLLLDPAWEKQQRKTFTAWCNSHLRKAGTQIENIEEDFRDGLKLMLLLEVISGERLAKPERGKMRVHKISNVNKALDFIASKGVKLVSIGAEEIVDGNVKMTLGMIWTIILRFAIQDISVEETSAKEGLLLWCQRKTAPYKNVNIQNFHISWKDGLGFCALIHRHRPELIDYGKLRKDDPLTNLNTAFDVAEKYLDIPKMLDAEDIVGTARPDEKAIMTYVSSFYHAFSGAQKAETAANRICKVLAVNQENEQLMEDYEKLASDLLEWIRRTIPWLENRVPENTMHAMQQKLEDFRDYRRLHKPPKVQEKCQLEINFNTLQTKLRLSNRPAFMPSEGRMVSDINNAWGCLEQVEKGYEEWLLNEIRRLERLDHLAEKFRQKASIHEAWTDGKEAMLRQKDYETATLSEIKALLKKHEAFESDLAAHQDRVEQIAAIAQELNELDYYDSPSVNARCQKICDQWDNLGALTQKRREALERTEKLLETIDQLYLEYAKRAAPFNNWMEGAMEDLQDTFIVHTIEEIQGLTTAHEQFKATLPDADKERLAILGIHNEVSKIVQTYHVNMAGTNPYTTITPQEINGKWDHVRQLVPRRDQALTEEHARQQHNERLRKQFGAQANVIGPWIQTKMEEIGRISIEMHGTLEDQLSHLRQYEKSIVNYKPKIDQLEGDHQLIQEALIFDNKHTNYTMEHIRVGWEQLLTTIARTINEVENQILTRDAKGISQEQMNEFRASFNHFDRDHSGTLGPEEFKACLISLGYDIGNDPQGEAEFARIMSIVDPNRLGVVTFQAFIDFMSRETADTDTADQVMASFKILAGDKNYITMDELRRELPPDQAEYCIARMAPYTGPDSVPGALDYMSFSTALYGESDL
B6: ANXA1_HUMAN (protein, UniProt P04083 2-346, looked up)
Annexin A1: AMVSEFLKQAWFIENEEQEYVQTVKSSKGGPGSAVSPYPTFNPSSDVAALHKAIMVKGVDEATIIDILTKRNNAQRQQIKAAYLQETGKPLDETLKKALTGHLEEVVLALLKTPAQFDADELRAAMKGLGTDEDTLIEILASRTNKEIRDINRVYREELKRDLAKDITSDTSGDFRNALLSLAKGDRSEDFGVNEDLADSDARALYEAGERRKGTDVNVFNTILTTRSYPQLRRVFQKYTKYSKHDMNKVLDLELKGDIEKCLTAIVKCATSKPAFFAEKLHQAMKGVGTRHKALIRIMVSRSEIDMNDIKAFYQKMYGISLCQAILDETKGDYEKILVALCGGN

System: peptides in gingival brush samples
Test: Protein and peptide profiling of gingival brush samples (LC-MS/MS), TABLE 23
Type: in vivo, human
Conditions: peptide abundance, gingival brush samples; for Mean Cntl Bsl / Mean Cntl Wk3: control regimen; for Mean Cntl Bsl / Mean TrtBsl: baseline; for Mean Cntl Wk3 / Mean TrtWk3: week 3; for Mean TrtBsl / Mean TrtWk3: treatment regimen

| Molecule | Mean Cntl Bsl | Mean Cntl Wk3 | Mean TrtBsl | Mean TrtWk3 |
| --- | --- | --- | --- | --- |
| B1 | 3094.1 | 4306.6 | 2147.3 | 5044.2 |
| B2 | 7579.1 | 13769.2 | 8971.9 |  |
| B3 | 1835.9 | 3381.2 | 1731.2 | 3165.4 |
| B4 | 4239.5 | 5183.4 | 3584.3 | 5904.1 |
| B5 | 1660.8 | 1371.4 | 2471.3 | 1263.6 |
| B6 | 529165.7 | 960205.2 | 573737.1 | 1103967.7 |
